{
  "source": "patent US10688099B2",
  "about": "“Methods for modulating the amount of RNA transcripts” (PTC Therapeutics, Inc., priority 2013, dated 2020)",
  "test_system": "RNA isoforms in PNN 1-46 SMA type I patient-derived fibroblasts",
  "assay": "RNA Abundance Modulation (RNA isoform abundance, iFPM, HiSeq RNA sequencing)",
  "assay_type": "cell-based, human",
  "details": "3 μM",
  "procedure": "Cells from a cell line of interest are cultured in conditions sufficient to yield the number of cells capable of generating enough RNA for subsequent sequencing steps. Cells from the tested cell line are contacted with a compound described herein.\nTo culture said cells, they are seeded, at appropriate concentrations in a volume of media in a cell culture container and incubated for 4, 5, 6, 7, 8, 9, 10, or more hours. A concentrated solution of compound in a vehicle (e.g., DMSO) is then added in sufficient volume to result in the intended final concentration of the compound, for example 100 nM, 500 nM, 1 μM, 5 μM, 10 μM, 15 μM, 20 μM, or more. The cells may also be treated with vehicle alone, as a control. A number of replicates of each concentration or control may be made (e.g., 2 replicates). The cells are then incubated at a constant temperature appropriate for cell culture of the particular cell line (e.g., 37° C.) for 6, 12, 18, 24, 48, or more hours. After incubation, the growth medium is removed and the cells are washed with the appropriate buffer (e.g., PBS). Cells are then removed from adherence to the cell culture container by treatment with a solution containing trypsin, and the trypsin subsequently quenched with the appropriate volume of buffer (e.g., DMEM-FBS). The cells are then pelleted with gentle centrifugation (e.g., ≤90×g centrifugal force) and resuspended in a buffer to lyse the cells for extraction of RNA. The cell lysates may then be frozen (e.g., at −80° C.) or, alternately, may immediately be used in a procedure to purify the RNA (e.g. by use of the RNEASY PLUS® minikit). The RNA from cell lysates is eluted in the appropriate volume of buffer (e.g., RNEASE-FREE H2O®). The resulting purified RNA may then be sequenced (e.g., using RNASeq) or analyzed using a human exon array (e.g., by GENECHIP® human exon array) to determine changes in the RNA levels in those cells treated with compound compared to those cells treated only with DMSO. The purified RNA may also be quantified by other methods known in the art.\nUsing the RNA data obtained from sequencing, exon array, or other methods, a statistical analysis can reveal changes in the RNA levels of compound-treated compared with control. For example, t-test p-values may be calculated for the data obtained through sequencing and exon array methods in order to compare compound-treated cells to those treated with the DMSO control. […] Analysis of the sequencing and exon array data may then also yield predictions about the cause of the aberrant amount of an RNA transcript in the cells (e.g., perturbation of RNA splicing, RNA transcription, or RNA stability). These predictions may be further confirmed by methods known in the art. For example, RT-PCR and RT-qPCR may be used to confirm the change in amount of RNA transcripts for one or more particular transcripts of interest.\nFollowing the methods described above in Example 1, PNN 1-46 SMA type I patient-derived fibroblasts were treated with 300 nM or 3 μM Compounds 774 and 808 in 0.5% DMSO.\n700,000 cells were seeded in 10 mL of medium (DMEM plus 10% FBS) in a T-75 flask. Cells were allowed to attach for at least 4 hrs, after which 50 μL of a 200× compound solution (100% DMSO) was added to each well, and the plate was incubated at 37° C. for 24 hrs.\nAt the end of the incubation period, the supernatant was removed and the cells where washed with PBS. TrypLE (Invitrogen) express solution was added (e.g. 1.5 mL per one T75 flask). The flasks were incubated for 3 to 5 min at 37° C. The trypsin was then quenched, e.g., by adding 10 mL DMEM-FBS.\nNext, the cells were pelleted using gentle centrifugation without exceeding 90×g centrifugal force. The supernatant was removed and the cell pellet was re-suspended in 600 μL RLT buffer (the RLT buffer was supplemented with beta-mercaptoethanol according to the RNeasy protocol manual) by pipetting up and down until the pellet was completely dissolved […]",
  "note": "This continues a long series; more values of the same kind are listed elsewhere.",
  "data": [
    {"smiles": "CCc1nc(C)cn2nc(-c3cc(=O)n4cc(C5CCN(C)CC5)cc(C)c4n3)cc12", "note": "[Compound 774]", "values": [
      {"measurement": "L2FC (x + 1)", "setting": "FHOD3 AB051482", "value": "−1.508"},
      {"measurement": "L2abs (Cpd-DMSO)", "setting": "FHOD3 AB051482", "value": 7.51},
      {"measurement": "abs (Cpd-DMSO)", "setting": "FHOD3 AB051482", "value": 182, "unit": "iFPM"},
      {"measurement": "amp FC (x + 1)", "setting": "FHOD3 AB051482", "value": 2.84},
      {"measurement": "ave Cpd", "setting": "FHOD3 AB051482", "value": 98, "unit": "iFPM"},
      {"measurement": "FC (x + 1)", "setting": "FHOD3 AB084087", "value": 0.0098},
      {"measurement": "L2FC (x + 1)", "setting": "FHOD3 AB084087", "value": "−6.674"},
      {"measurement": "L2abs (Cpd-DMSO)", "setting": "FHOD3 AB084087", "value": 6.66},
      {"measurement": "abs (Cpd-DMSO)", "setting": "FHOD3 AB084087", "value": 101, "unit": "iFPM"},
      {"measurement": "amp FC (x + 1)", "setting": "FHOD3 AB084087", "value": 102.10},
      {"measurement": "ave Cpd", "setting": "FHOD3 AB084087", "value": 0, "unit": "iFPM"},
      {"measurement": "FC (x + 1)", "setting": "FHOD3 AK128053", "value": 0.8974},
      {"measurement": "L2FC (x + 1)", "setting": "FHOD3 AK128053", "value": "−0.156"},
      {"measurement": "L2abs (Cpd-DMSO)", "setting": "FHOD3 AK128053", "value": 0.72},
      {"measurement": "abs (Cpd-DMSO)", "setting": "FHOD3 AK128053", "value": 2, "unit": "iFPM"},
      {"measurement": "amp FC (x + 1)", "setting": "FHOD3 AK128053", "value": 1.11},
      {"measurement": "ave Cpd", "setting": "FHOD3 AK128053", "value": 13, "unit": "iFPM"},
      {"measurement": "FC (x + 1)", "setting": "FHOD3 AK308859", "value": 0.3689},
      {"measurement": "L2FC (x + 1)", "setting": "FHOD3 AK308859", "value": "−1.439"},
      {"measurement": "L2abs (Cpd-DMSO)", "setting": "FHOD3 AK308859", "value": 3.68},
      {"measurement": "abs (Cpd-DMSO)", "setting": "FHOD3 AK308859", "value": 13, "unit": "iFPM"},
      {"measurement": "amp FC (x + 1)", "setting": "FHOD3 AK308859", "value": 2.71},
      {"measurement": "ave Cpd", "setting": "FHOD3 AK308859", "value": 6, "unit": "iFPM"},
      {"measurement": "FC (x + 1)", "setting": "FHOD3 BC058897", "value": 0.4349},
      {"measurement": "L2FC (x + 1)", "setting": "FHOD3 BC058897", "value": "−1.201"},
      {"measurement": "L2abs (Cpd-DMSO)", "setting": "FHOD3 BC058897", "value": 5.22},
      {"measurement": "abs (Cpd-DMSO)", "setting": "FHOD3 BC058897", "value": 37, "unit": "iFPM"},
      {"measurement": "amp FC (x + 1)", "setting": "FHOD3 BC058897", "value": 2.30},
      {"measurement": "ave Cpd", "setting": "FHOD3 BC058897", "value": 28, "unit": "iFPM"},
      {"measurement": "FC (x + 1)", "setting": "FHOD3 HM191478", "value": 0.3167},
      {"measurement": "L2FC (x + 1)", "setting": "FHOD3 HM191478", "value": "−1.659"},
      {"measurement": "L2abs (Cpd-DMSO)", "setting": "FHOD3 HM191478", "value": 3.38},
      {"measurement": "abs (Cpd-DMSO)", "setting": "FHOD3 HM191478", "value": 10, "unit": "iFPM"},
      {"measurement": "amp FC (x + 1)", "setting": "FHOD3 HM191478", "value": 3.16},
      {"measurement": "ave Cpd", "setting": "FHOD3 HM191478", "value": 4, "unit": "iFPM"},
      {"measurement": "FC (x + 1)", "setting": "FHOD3 NM_025135", "value": 0.5522},
      {"measurement": "L2FC (x + 1)", "setting": "FHOD3 NM_025135", "value": "−0.857"},
      {"measurement": "L2abs (Cpd-DMSO)", "setting": "FHOD3 NM_025135", "value": 7.67},
      {"measurement": "abs (Cpd-DMSO)", "setting": "FHOD3 NM_025135", "value": 203, "unit": "iFPM"},
      {"measurement": "amp FC (x + 1)", "setting": "FHOD3 NM_025135", "value": 1.81},
      {"measurement": "ave Cpd", "setting": "FHOD3 NM_025135", "value": 250, "unit": "iFPM"},
      {"measurement": "FC (x + 1)", "setting": "FLII AK295814", "value": 2.3273},
      {"measurement": "L2FC (x + 1)", "setting": "FLII AK295814", "value": 1.219},
      {"measurement": "L2abs (Cpd-DMSO)", "setting": "FLII AK295814", "value": 2.99},
      {"measurement": "abs (Cpd-DMSO)", "setting": "FLII AK295814", "value": 8, "unit": "iFPM"},
      {"measurement": "amp FC (x + 1)", "setting": "FLII AK295814", "value": 2.33},
      {"measurement": "ave Cpd", "setting": "FLII AK295814", "value": 13, "unit": "iFPM"},
      {"measurement": "FC (x + 1)", "setting": "FLII BC021885", "value": 1.1053},
      {"measurement": "L2FC (x + 1)", "setting": "FLII BC021885", "value": 0.144},
      {"measurement": "L2abs (Cpd-DMSO)", "setting": "FLII BC021885", "value": 8.51},
      {"measurement": "abs (Cpd-DMSO)", "setting": "FLII BC021885", "value": 364, "unit": "iFPM"},
      {"measurement": "amp FC (x + 1)", "setting": "FLII BC021885", "value": 1.11},
      {"measurement": "ave Cpd", "setting": "FLII BC021885", "value": 3822, "unit": "iFPM"},
      {"measurement": "FC (x + 1)", "setting": "FLII NM_002018", "value": 0.9666},
      {"measurement": "L2FC (x + 1)", "setting": "FLII NM_002018", "value": "−0.049"},
      {"measurement": "L2abs (Cpd-DMSO)", "setting": "FLII NM_002018", "value": 6.97},
      {"measurement": "abs (Cpd-DMSO)", "setting": "FLII NM_002018", "value": 125, "unit": "iFPM"},
      {"measurement": "amp FC (x + 1)", "setting": "FLII NM_002018", "value": 1.03},
      {"measurement": "ave Cpd", "setting": "FLII NM_002018", "value": 3619, "unit": "iFPM"},
      {"measurement": "FC (x + 1)", "setting": "FLII NM_001256264", "value": 0.0064},
      {"measurement": "L2FC (x + 1)", "setting": "FLII NM_001256264", "value": "−7.291"}
    ]}
  ]
}
